Results are given in words; binding and its absence hold for the method and conditions named. In cells and extracts the contact can be indirect. Some binding calls cover weakened binding; strength is not graded here.
Columns and labels:
[1] = target: T1, HE4 (human (endogenous in CAOV3 and OVCAR3)) (UniProt Q14508); experiment: co-IP; 2 ug anti-HE4 antibody (ab200828), anti-ZNF703 antibody or rabbit IgG added to 500 ug protein lysate of CAOV3 or OVCAR3 cells, 4 °C overnight; protein A/G PLUS-Agarose beads 6 h; western blot; both directions
T1 sequence: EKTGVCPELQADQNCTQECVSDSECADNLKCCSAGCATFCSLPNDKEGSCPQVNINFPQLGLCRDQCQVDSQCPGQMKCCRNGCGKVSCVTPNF

By UniProt entry, the sequences of proteins in these tests, tags left out.
UniProt Q9H7S9: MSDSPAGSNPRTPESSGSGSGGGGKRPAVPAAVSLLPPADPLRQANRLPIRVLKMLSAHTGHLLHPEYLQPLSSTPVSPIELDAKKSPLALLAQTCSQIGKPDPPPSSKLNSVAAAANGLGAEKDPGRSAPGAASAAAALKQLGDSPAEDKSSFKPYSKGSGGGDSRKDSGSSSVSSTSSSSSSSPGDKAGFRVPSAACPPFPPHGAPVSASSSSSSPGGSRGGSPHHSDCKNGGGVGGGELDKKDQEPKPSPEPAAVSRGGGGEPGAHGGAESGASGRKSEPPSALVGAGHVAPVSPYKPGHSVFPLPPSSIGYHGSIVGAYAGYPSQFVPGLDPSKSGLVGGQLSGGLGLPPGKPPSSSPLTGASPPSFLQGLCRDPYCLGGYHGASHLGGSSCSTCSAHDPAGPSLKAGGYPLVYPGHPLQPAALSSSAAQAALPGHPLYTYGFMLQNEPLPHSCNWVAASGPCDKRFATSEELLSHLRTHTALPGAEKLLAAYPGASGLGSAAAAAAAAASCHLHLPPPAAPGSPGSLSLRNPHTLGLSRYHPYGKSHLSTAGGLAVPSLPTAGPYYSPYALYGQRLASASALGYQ

[2] = target: zinc finger protein 703 (human (endogenous in CAOV3 and OVCAR3)) (UniProt Q9H7S9); experiment: as above

Molecule: zinc finger protein 703 (from UniProt Q9H7S9 1-590)
- binding [1]: binds

B1: HE4 (protein, UniProt Q14508 31-124)
chain: EKTGVCPELQADQNCTQECVSDSECADNLKCCSAGCATFCSLPNDKEGSCPQVNINFPQLGLCRDQCQVDSQCPGQMKCCRNGCGKVSCVTPNF
- binding [2]: binds
